These are yes or no findings as the source states them, for the method shown. In cells and extracts the contact can be indirect. Sequences can lack the tags named with a protein.
Target: LIN54 (human) (human (endogenous in RT112)) (UniProt Q6MZP7)
Assay: co-IP

By UniProt entry, the sequences of proteins in these tests, tags left out.
UniProt Q6MZP7: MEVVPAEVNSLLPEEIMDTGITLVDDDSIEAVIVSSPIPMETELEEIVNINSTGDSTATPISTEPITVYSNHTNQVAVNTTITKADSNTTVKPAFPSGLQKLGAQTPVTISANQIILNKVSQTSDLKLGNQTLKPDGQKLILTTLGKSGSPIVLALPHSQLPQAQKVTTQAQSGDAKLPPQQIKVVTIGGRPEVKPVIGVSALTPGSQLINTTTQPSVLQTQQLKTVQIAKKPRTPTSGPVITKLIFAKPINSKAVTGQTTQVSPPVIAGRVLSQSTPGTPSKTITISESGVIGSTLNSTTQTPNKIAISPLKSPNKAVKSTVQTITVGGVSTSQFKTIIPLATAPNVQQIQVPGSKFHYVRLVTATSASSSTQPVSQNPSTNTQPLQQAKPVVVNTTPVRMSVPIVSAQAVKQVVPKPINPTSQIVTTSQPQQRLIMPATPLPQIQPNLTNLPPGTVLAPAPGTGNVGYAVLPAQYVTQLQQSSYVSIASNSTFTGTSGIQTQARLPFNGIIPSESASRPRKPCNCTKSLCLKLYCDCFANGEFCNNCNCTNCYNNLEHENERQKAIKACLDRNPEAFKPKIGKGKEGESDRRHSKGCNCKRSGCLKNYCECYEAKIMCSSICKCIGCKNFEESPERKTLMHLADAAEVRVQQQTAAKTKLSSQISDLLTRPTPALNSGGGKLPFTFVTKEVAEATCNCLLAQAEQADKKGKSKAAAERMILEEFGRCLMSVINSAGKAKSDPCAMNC

binding: no binding
B1: STAG2 (human) (protein, UniProt Q8N3U4 1-1231)
chain: MIAAPEIPTDFNLLQESETHFSSDTDFEDIEGKNQKQGKGKTCKKGKKGPAEKGKGGNGGGKPPSGPNRMNGHHQQNGVENMMLFEVVKMGKSAMQSVVDDWIESYKHDRDIALLDLINFFIQCSGCKGVVTAEMFRHMQNSEIIRKMTEEFDEDSGDYPLTMAGPQWKKFKSSFCEFIGVLVRQCQYSIIYDEYMMDTVISLLTGLSDSQVRAFRHTSTLAAMKLMTALVNVALNLSINMDNTQRQYEAERNKMIGKRANERLELLLQKRKELQENQDEIENMMNAIFKGVFVHRYRDAIAEIRAICIEEIGIWMKMYSDAFLNDSYLKYVGWTMHDKQGEVRLKCLTALQGLYYNKELNSKLELFTSRFKDRIVSMTLDKEYDVAVQAIKLLTLVLQSSEEVLTAEDCENVYHLVYSAHRPVAVAAGEFLYKKLFSRRDPEEDGMMKRRGRQGPNANLVKTLVFFFLESELHEHAAYLVDSMWDCATELLKDWECMNSLLLEEPLSGEEALTDRQESALIEIMLCTIRQAAECHPPVGRGTGKRVLTAKEKKTQLDDRTKITELFAVALPQLLAKYSVDAEKVTNLLQLPQYFDLEIYTTGRLEKHLDALLRQIRNIVEKHTDTDVLEACSKTYHALCNEEFTIFNRVDISRSQLIDELADKFNRLLEDFLQEGEEPDEDDAYQVLSTLKRITAFHNAHDLSKWDLFACNYKLLKTGIENGDMPEQIVIHALQCTHYVILWQLAKITESSSTKEDLLRLKKQMRVFCQICQHYLTNVNTTVKEQAFTILCDILMIFSHQIMSGGRDMLEPLVYTPDSSLQSELLSFILDHVFIEQDDDNNSADGQQEDEASKIEALHKRRNLLAAFCKLIVYTVVEMNTAADIFKQYMKYYNDYGDIIKETMSKTRQIDKIQCAKTLILSLQQLFNEMIQENGYNFDRSSSTFSGIKELARRFALTFGLDQLKTREAIAMLHKDGIEFAFKEPNPQGESHPPLNLAFLDILSEFSSKLLRQDKRTVYVYLEKFMTFQMSLRREDVWLPLMSYRNSLLAGGDDDTMSVISGISSRGSTVRSKKSKPSTGKRKVVEGMQLSLTEESSSSDSMWLSREQTLHTPVMMQTPQLTSTIMREPKRLRPEDSFMSVYPMQTEHHQTPLDYNRRGTSLMEDDEEPIVEDVMMSSEGRIEDLNEGMDFDTMDIDLPPSKNRRERTELKPDFFDPASIMDESVLGVSMF

Reference: publication doi:10.1101/2025.10.10.681713
